Experimental data from the supplement of paper PMC12823440, “Inhibitors supercharge kinase turnover through native proteolytic circuits” (Nature, 2025).
The list shows a part of the results. The calls rarely recur for the same compound in another form.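 Kinases were expressed as nanoluciferase fusions in K562 cells and luminescence was read every 4 h between 2 and 18 h as percent of control, DMSO set to 100% and a positive control to 0%. A time point counts as decreased when the signal drops significantly (2 sigma). The hit call is the authors' own, does not follow from the count of time points alone, and its rule is not shown.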

Sequences of proteins named here, by UniProt entry; tags and fusion partners are left off. A change or cut given only in a name is not applied to a line headed by its entry.
UniProt Q15208: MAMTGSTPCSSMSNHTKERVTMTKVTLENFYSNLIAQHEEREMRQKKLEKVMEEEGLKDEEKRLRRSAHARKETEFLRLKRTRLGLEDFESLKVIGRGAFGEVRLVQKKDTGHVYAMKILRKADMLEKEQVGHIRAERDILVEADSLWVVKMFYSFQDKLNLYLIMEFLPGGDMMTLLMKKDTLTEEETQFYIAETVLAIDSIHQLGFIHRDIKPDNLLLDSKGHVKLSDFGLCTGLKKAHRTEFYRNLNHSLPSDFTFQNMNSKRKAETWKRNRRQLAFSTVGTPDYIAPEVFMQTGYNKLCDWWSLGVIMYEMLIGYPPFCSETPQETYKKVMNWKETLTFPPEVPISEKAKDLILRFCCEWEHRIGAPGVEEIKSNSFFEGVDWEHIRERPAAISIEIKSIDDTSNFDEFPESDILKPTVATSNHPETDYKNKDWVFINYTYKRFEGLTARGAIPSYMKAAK
UniProt P29597: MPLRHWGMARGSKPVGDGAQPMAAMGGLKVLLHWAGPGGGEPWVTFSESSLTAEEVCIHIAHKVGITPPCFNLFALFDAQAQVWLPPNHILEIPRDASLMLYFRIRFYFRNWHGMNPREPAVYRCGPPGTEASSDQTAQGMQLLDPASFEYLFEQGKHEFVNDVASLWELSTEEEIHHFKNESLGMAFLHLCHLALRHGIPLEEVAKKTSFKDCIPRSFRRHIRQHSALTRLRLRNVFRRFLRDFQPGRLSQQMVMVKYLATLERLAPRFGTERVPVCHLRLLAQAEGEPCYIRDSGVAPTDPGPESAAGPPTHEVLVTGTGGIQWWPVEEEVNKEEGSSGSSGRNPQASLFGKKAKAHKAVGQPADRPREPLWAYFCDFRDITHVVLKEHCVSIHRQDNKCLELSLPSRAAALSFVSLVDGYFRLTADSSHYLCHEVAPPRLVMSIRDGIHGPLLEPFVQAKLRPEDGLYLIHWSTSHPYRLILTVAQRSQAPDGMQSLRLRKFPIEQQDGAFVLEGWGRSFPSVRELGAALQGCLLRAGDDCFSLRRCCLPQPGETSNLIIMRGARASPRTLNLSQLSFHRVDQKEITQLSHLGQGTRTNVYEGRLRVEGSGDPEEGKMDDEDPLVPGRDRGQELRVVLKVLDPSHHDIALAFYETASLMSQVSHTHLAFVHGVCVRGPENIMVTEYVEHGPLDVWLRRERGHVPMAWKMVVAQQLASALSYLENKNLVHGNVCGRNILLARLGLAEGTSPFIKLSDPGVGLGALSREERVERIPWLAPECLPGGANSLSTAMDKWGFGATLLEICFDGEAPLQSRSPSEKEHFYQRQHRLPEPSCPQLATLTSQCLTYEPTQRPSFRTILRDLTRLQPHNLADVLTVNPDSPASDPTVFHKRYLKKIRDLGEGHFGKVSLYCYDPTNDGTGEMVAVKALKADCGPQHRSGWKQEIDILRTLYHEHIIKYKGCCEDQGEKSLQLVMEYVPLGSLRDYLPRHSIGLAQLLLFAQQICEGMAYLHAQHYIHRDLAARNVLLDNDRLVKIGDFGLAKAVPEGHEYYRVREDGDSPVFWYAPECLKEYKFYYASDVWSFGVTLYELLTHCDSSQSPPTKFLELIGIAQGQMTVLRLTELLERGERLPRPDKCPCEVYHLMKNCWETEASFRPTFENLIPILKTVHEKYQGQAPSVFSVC
UniProt Q6PHR2: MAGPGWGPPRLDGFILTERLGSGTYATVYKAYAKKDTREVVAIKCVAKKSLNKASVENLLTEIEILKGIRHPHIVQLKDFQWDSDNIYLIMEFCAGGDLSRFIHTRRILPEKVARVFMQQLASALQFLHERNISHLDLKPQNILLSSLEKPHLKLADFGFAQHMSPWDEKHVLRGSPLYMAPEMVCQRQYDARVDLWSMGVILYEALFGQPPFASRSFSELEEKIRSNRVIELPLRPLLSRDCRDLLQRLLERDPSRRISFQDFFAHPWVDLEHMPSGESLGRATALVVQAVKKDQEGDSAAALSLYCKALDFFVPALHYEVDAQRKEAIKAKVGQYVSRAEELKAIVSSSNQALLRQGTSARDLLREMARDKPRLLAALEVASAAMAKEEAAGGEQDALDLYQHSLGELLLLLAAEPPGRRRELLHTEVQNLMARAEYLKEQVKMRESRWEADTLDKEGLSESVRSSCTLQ
UniProt P07947, whole entry, looked up: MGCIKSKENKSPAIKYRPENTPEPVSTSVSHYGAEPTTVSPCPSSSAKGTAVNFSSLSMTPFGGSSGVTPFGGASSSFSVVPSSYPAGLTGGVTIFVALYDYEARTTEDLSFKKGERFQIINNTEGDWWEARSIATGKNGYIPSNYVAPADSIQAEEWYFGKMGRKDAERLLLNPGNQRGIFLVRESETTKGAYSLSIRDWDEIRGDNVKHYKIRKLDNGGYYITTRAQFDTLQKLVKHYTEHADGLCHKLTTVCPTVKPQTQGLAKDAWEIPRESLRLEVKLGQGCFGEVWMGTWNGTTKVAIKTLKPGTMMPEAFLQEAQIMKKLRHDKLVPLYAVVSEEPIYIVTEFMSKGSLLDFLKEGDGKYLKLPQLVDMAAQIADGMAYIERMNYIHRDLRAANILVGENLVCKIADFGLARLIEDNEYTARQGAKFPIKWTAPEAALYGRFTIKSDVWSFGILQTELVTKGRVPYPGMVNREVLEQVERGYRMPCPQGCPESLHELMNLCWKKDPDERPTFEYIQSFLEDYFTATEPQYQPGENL
UniProt P31749: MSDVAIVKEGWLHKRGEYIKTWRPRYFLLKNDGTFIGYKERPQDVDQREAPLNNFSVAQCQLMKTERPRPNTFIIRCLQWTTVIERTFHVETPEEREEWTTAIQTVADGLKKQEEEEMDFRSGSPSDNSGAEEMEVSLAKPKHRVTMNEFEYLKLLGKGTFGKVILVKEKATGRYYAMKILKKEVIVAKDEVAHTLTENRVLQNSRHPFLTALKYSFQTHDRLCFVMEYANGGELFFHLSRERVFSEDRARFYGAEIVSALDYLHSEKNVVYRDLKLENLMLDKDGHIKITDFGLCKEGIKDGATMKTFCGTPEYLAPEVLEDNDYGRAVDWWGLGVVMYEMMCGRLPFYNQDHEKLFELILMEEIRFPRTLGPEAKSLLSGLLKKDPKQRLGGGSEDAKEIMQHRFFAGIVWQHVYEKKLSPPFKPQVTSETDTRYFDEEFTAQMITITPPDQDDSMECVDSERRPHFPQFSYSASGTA
UniProt P10398: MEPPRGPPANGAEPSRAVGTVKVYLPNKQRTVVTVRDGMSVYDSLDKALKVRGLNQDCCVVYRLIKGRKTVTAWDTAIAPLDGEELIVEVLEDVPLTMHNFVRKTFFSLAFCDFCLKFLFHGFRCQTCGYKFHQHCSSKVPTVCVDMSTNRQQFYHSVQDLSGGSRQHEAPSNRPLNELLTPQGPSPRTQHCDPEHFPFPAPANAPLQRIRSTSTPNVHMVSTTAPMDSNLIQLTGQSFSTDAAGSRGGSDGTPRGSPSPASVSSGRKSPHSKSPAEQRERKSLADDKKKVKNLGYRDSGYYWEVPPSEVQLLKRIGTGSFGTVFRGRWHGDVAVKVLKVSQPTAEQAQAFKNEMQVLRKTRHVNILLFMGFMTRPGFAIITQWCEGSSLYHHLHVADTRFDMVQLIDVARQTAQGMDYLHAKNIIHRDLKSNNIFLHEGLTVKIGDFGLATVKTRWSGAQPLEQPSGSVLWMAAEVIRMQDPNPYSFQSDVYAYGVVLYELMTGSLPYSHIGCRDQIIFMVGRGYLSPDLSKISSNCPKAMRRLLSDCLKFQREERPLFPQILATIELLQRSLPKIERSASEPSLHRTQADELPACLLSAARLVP
UniProt O14965: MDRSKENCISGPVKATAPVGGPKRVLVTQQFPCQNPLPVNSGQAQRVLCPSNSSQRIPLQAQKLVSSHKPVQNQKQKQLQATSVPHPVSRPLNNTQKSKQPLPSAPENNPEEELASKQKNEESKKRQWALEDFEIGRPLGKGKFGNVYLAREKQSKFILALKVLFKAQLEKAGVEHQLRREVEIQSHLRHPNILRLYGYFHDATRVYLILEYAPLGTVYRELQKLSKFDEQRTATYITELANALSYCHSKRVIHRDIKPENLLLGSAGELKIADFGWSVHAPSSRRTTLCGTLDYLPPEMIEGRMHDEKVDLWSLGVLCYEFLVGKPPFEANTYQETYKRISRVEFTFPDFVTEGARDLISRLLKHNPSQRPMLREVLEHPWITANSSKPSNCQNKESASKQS
UniProt Q96GD4, whole entry: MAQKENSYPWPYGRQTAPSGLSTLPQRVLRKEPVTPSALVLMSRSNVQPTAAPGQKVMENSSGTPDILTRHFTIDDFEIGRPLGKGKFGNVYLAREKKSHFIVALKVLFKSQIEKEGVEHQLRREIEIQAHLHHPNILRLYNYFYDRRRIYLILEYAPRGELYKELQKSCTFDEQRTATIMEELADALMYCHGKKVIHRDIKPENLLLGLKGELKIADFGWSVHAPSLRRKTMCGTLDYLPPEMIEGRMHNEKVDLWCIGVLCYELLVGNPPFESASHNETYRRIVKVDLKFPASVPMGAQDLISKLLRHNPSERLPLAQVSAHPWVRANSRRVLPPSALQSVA
UniProt P51813: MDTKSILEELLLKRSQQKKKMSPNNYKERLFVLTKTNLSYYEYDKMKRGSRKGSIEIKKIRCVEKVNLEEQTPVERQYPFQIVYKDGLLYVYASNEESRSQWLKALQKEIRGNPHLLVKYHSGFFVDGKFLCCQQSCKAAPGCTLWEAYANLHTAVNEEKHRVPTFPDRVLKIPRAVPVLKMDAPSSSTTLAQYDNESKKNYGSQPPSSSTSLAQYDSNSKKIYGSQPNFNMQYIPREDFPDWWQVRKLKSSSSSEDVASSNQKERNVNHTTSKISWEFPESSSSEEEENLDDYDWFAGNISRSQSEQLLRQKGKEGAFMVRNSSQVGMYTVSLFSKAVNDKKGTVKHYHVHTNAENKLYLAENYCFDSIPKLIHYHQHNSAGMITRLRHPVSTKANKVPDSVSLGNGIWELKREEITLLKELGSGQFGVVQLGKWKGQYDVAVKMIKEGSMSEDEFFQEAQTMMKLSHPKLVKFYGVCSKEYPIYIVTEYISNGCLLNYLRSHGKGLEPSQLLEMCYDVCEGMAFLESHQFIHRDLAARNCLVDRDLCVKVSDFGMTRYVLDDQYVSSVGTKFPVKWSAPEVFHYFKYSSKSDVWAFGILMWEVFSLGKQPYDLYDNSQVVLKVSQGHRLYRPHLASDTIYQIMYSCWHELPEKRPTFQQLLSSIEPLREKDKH
UniProt P15056, whole entry, looked up: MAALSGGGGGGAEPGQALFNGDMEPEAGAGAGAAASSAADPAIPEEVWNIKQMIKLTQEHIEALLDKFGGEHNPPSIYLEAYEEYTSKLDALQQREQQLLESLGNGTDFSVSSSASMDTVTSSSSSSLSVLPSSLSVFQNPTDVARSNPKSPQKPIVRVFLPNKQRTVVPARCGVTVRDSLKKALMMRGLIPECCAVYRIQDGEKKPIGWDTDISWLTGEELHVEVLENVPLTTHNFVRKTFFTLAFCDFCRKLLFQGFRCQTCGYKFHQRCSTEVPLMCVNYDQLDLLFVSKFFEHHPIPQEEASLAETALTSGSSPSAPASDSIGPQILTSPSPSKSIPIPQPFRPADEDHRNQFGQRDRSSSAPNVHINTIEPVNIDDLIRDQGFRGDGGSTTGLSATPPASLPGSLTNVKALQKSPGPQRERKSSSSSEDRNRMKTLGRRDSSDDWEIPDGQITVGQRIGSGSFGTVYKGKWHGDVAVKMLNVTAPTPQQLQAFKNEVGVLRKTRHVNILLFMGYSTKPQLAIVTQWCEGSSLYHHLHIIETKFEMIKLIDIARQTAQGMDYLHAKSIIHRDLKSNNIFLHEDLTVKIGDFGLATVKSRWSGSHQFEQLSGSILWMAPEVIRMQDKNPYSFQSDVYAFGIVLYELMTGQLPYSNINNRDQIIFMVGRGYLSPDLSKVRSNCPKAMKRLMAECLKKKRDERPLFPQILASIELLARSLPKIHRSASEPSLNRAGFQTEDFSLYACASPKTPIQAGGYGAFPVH
UniProt Q06187: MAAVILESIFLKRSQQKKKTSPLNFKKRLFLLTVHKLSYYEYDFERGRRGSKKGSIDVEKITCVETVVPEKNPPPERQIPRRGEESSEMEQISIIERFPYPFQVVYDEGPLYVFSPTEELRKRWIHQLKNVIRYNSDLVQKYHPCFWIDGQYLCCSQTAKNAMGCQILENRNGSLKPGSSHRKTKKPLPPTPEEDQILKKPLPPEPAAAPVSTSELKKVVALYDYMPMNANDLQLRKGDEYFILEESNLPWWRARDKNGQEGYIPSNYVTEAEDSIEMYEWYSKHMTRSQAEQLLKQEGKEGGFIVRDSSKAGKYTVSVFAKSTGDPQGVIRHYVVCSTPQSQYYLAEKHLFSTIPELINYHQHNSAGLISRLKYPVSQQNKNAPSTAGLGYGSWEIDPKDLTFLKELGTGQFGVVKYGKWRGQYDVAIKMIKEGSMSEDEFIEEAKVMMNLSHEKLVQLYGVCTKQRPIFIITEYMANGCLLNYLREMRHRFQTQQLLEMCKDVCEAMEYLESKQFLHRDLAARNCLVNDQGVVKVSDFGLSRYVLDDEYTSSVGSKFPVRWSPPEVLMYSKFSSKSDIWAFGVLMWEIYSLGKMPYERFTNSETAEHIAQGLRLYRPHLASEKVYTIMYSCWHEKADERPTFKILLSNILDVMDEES

Columns and labels:
Settings in all cases: K562; 2-18 h
STK38 = STK38 (UniProt Q15208); test: kinase-Nluc reporter destabilization hit call (1 = scored as downregulated) (binary); higher = compound decreases kinase abundance
SYK = SYK (UniProt P43405); test: as above
TEC = TEC (UniProt P42680); test: as above
TYK2 = TYK2 (UniProt P29597); test: as above
ULK3 = ULK3 (UniProt Q6PHR2); test: as above
YES1 = YES1 (UniProt P07947); test: as above
ZAK = ZAK (UniProt Q9NYL2); test: as above
ZAP70 = ZAP70 (UniProt P43403); test: as above
ABL1 = ABL1 (UniProt P00519); test: number of time points (of 5) at which kinase-Nluc abundance scored as decreased, DMSO-normalised (count); higher = more persistent destabilization
AKT1 = AKT1 (UniProt P31749); test: as above
ALK = ALK (UniProt Q9UM73); test: as above
ARAF = ARAF (UniProt P10398); test: as above
AURKA = AURKA (UniProt O14965); test: as above
AURKB = AURKB (UniProt Q96GD4); test: as above
AURKC = AURKC (UniProt Q9UQB9); test: as above
BLK = BLK (UniProt P51451); test: as above
BMX = BMX (UniProt P51813); test: as above
BRAF = BRAF (UniProt P15056); test: as above
BRAF_V600E = test: as above
BTK = BTK (UniProt Q06187); test: as above

CCC(C)N1c2ccccc2C(=O)N(C)c2cnc(Nc3ccc(C(=O)N4CCC(N5CCN(C)CC5)CC4)cc3OC)nc21 (stereo not given) (2.5 µM)
inactive: kinase-Nluc reporter destabilization hit call (STK38) 0 | kinase-Nluc reporter destabilization hit call (SYK) 0 | kinase-Nluc reporter destabilization hit call (TEC) 0 | kinase-Nluc reporter destabilization hit call (TYK2) 0 | kinase-Nluc reporter destabilization hit call (ULK3) 0 | kinase-Nluc reporter destabilization hit call (YES1) 0 | kinase-Nluc reporter destabilization hit call (ZAK) 0 | kinase-Nluc reporter destabilization hit call (ZAP70) 0
0: number of time points (ABL1) | number of time points (AKT1) | number of time points (ALK) | number of time points (ARAF) | number of time points (AURKA) | number of time points (AURKB) | number of time points (AURKC) | number of time points (BLK) | number of time points (BMX) | number of time points (BRAF) | number of time points (BRAF_V600E) | number of time points (BTK)

CC(C)(C)c1cc(O)ccc1O (10 µM)
0: number of time points (ABL1) | number of time points (AKT1) | number of time points (ALK) | number of time points (ARAF) | number of time points (AURKA) | number of time points (AURKB) | number of time points (AURKC) | number of time points (BLK) | number of time points (BMX) | number of time points (BRAF) | number of time points (BRAF_V600E) | number of time points (BTK)
inactive: kinase-Nluc reporter destabilization hit call (STK38) 0 | kinase-Nluc reporter destabilization hit call (SYK) 0 | kinase-Nluc reporter destabilization hit call (TEC) 0 | kinase-Nluc reporter destabilization hit call (TYK2) 0 | kinase-Nluc reporter destabilization hit call (ULK3) 0 | kinase-Nluc reporter destabilization hit call (YES1) 0 | kinase-Nluc reporter destabilization hit call (ZAK) 0 | kinase-Nluc reporter destabilization hit call (ZAP70) 0

O=C(Nc1ccc(CN2CCOCC2)cc1)c1ccc(-c2cccc(Cl)c2)o1 (10 µM)
1: number of time points (BRAF_V600E)
0: number of time points (AKT1) | number of time points (ALK) | number of time points (ARAF) | number of time points (AURKA) | number of time points (AURKB) | number of time points (AURKC) | number of time points (BLK) | number of time points (BMX) | number of time points (BRAF) | number of time points (BTK)
inactive: kinase-Nluc reporter destabilization hit call (STK38) 0 | kinase-Nluc reporter destabilization hit call (SYK) 0 | kinase-Nluc reporter destabilization hit call (TEC) 0 | kinase-Nluc reporter destabilization hit call (TYK2) 0 | kinase-Nluc reporter destabilization hit call (ULK3) 0 | kinase-Nluc reporter destabilization hit call (YES1) 0 | kinase-Nluc reporter destabilization hit call (ZAK) 0 | kinase-Nluc reporter destabilization hit call (ZAP70) 0
4: number of time points (ABL1)

CCCCCCCCCCCCC/C=C/[C@@H](O)[C@@H](N)CO [D-erythro-Sphingosine] (2.5 µM)
inactive: kinase-Nluc reporter destabilization hit call (STK38) 0 | kinase-Nluc reporter destabilization hit call (SYK) 0 | kinase-Nluc reporter destabilization hit call (TEC) 0 | kinase-Nluc reporter destabilization hit call (TYK2) 0 | kinase-Nluc reporter destabilization hit call (ULK3) 0 | kinase-Nluc reporter destabilization hit call (YES1) 0 | kinase-Nluc reporter destabilization hit call (ZAK) 0 | kinase-Nluc reporter destabilization hit call (ZAP70) 0
0: number of time points (ABL1) | number of time points (AKT1) | number of time points (ALK) | number of time points (ARAF) | number of time points (AURKA) | number of time points (AURKB) | number of time points (AURKC) | number of time points (BLK) | number of time points (BMX) | number of time points (BRAF) | number of time points (BRAF_V600E) | number of time points (BTK)

COc1cc2ncnc(Nc3ccc(Cl)cc3F)c2cc1OC (10 µM)
0: number of time points (ABL1) | number of time points (AKT1) | number of time points (ALK) | number of time points (ARAF) | number of time points (AURKA) | number of time points (AURKB) | number of time points (AURKC) | number of time points (BLK) | number of time points (BMX) | number of time points (BRAF) | number of time points (BTK)
inactive: kinase-Nluc reporter destabilization hit call (STK38) 0 | kinase-Nluc reporter destabilization hit call (SYK) 0 | kinase-Nluc reporter destabilization hit call (TEC) 0 | kinase-Nluc reporter destabilization hit call (TYK2) 0 | kinase-Nluc reporter destabilization hit call (ULK3) 0 | kinase-Nluc reporter destabilization hit call (YES1) 0 | kinase-Nluc reporter destabilization hit call (ZAK) 0 | kinase-Nluc reporter destabilization hit call (ZAP70) 0
1: number of time points (BRAF_V600E)

O=C(NOCC(O)CO)c1cc(Br)c(F)c(F)c1Nc1ccc(I)cc1F (stereo not given) (2.5 µM)
0: number of time points (ABL1) | number of time points (AKT1) | number of time points (ALK) | number of time points (ARAF) | number of time points (AURKA) | number of time points (AURKB) | number of time points (AURKC) | number of time points (BLK) | number of time points (BMX) | number of time points (BRAF) | number of time points (BRAF_V600E) | number of time points (BTK)
inactive: kinase-Nluc reporter destabilization hit call (STK38) 0 | kinase-Nluc reporter destabilization hit call (SYK) 0 | kinase-Nluc reporter destabilization hit call (TEC) 0 | kinase-Nluc reporter destabilization hit call (TYK2) 0 | kinase-Nluc reporter destabilization hit call (ULK3) 0 | kinase-Nluc reporter destabilization hit call (YES1) 0 | kinase-Nluc reporter destabilization hit call (ZAK) 0 | kinase-Nluc reporter destabilization hit call (ZAP70) 0

COc1cc(OC2CCN(C)CC2)ccc1Nc1ncc2c(n1)n(C1CCCC1)c(=O)n2C (10 µM)
0: number of time points (ABL1) | number of time points (AKT1) | number of time points (ALK) | number of time points (ARAF) | number of time points (AURKA) | number of time points (AURKB) | number of time points (AURKC) | number of time points (BLK) | number of time points (BMX) | number of time points (BRAF) | number of time points (BRAF_V600E) | number of time points (BTK)
inactive: kinase-Nluc reporter destabilization hit call (STK38) 0 | kinase-Nluc reporter destabilization hit call (SYK) 0 | kinase-Nluc reporter destabilization hit call (TEC) 0 | kinase-Nluc reporter destabilization hit call (TYK2) 0 | kinase-Nluc reporter destabilization hit call (ULK3) 0 | kinase-Nluc reporter destabilization hit call (YES1) 0 | kinase-Nluc reporter destabilization hit call (ZAK) 0 | kinase-Nluc reporter destabilization hit call (ZAP70) 0
